The values that follow come from publication doi:10.1101/2025.05.27.656348.

Results are given in words; binding and its absence hold for the method and conditions named. Where a sequence is shown, tags or fusion partners need not be part of it.

The assay concerns the target T1, RELMβ bait: RELMβ fused to rat CD4d3+4, BirA recognition site and 6X-histidine tag (mouse) (UniProt Q99P86).
T1 sequence (chain, biotin at the BirA recognition site (enzymatic, BirA500 kit; told for SPR only)): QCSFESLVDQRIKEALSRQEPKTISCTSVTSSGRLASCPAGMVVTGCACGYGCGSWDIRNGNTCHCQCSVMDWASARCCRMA
Nature of the assay: ELISA.

For the substance “HpApyMut2 (Heligmosomoides polygyrus bakeri) (enzyme)”, the binding entry is reported as “no binding”.
